Source: PubChem BioAssay AID2517 (National Center for Advancing Translational Sciences (NCATS), 2010)
Among all 350,000 compounds or so, about 1,200 (0.34%) were called active. Inconclusive results, whose numbers are uncertain, are shown with a selection of clear calls. Calls come from the whole dose curve; as a rule, active = well fitted inhibition curve with a large enough effect; inconclusive = small, poorly fitted or top-dose-only effect; inactive = no such curve, though single readings can be large or run the other way. A potency beside an inconclusive call is a rough fit, not a confirmed value.

Sequences of proteins named here, by UniProt entry; tags and fusion partners are left off.
UniProt P27695, whole entry, looked up: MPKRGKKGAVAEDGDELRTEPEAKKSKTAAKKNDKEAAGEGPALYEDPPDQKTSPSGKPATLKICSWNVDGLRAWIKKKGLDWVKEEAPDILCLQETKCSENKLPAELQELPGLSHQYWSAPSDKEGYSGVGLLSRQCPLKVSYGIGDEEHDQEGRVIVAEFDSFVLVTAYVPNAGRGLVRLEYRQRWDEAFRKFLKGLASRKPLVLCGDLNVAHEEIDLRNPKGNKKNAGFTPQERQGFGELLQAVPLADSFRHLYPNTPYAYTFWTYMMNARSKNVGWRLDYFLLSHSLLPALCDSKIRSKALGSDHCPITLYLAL

target: DNA repair nuclease/redox regulator APEX1 (Homo sapiens) (UniProt P27695); assay: qHTS Assay for Inhibitors of the Human Apurinic/apyrimidinic Endonuclease 1 (APE1); settings: recombinant APE1, TAMRA/BHQ-2 abasic DNA cleavage fluorescence; series mostly up to 65.8 µM; note: nearly all actives have a fitted effect of over 55% in size
Outline: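 Endonuclease cleavage of a quenched abasic-site DNA duplex (50 nM) by APE1 (0.75 nM) was tracked by TAMRA dequenching. Compounds were preincubated with enzyme 15 min at room temperature; data normalized to buffer-only and DMSO wells plus NSC13755 control.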
Potency is the fitted concentration of half-maximal effect.

Row | SMILES | Potency
1 | CC(C)C(NC(=O)c1ccccc1F)C(=O)Nc1nccs1 (centres undefined) | inconclusive: 6.31 µM [inhibitor, partial curve, poor fit]
2 | O=C(O/N=C/C1=C(Cl)c2ccccc2CC1)c1ccc(F)cc1 | inactive
3 | Cc1nc(CS(=O)(=O)c2ccc(Cl)cc2)cc(Sc2ccccc2Cl)n1 | inconclusive: 0.224 µM [inhibitor, full curve, poor fit]
4 | CCOc1cc(/C=N/NC(=O)c2cccnc2)ccc1OCC(N)=O | inconclusive: 15.8 µM [inhibitor, single point]
5 | Cc1cc(F)ccc1OC1C=CC(c2ccc3c(c2)OCO3)OC1CO (centres undefined) | inconclusive: 7.08 µM [inhibitor, single point]
6 | N#Cc1c(N)nc2c(c1-c1ccncc1)CCCCC2 | inconclusive: 44.7 µM [inhibitor, single point]
7 | COC(=O)COc1ccc2oc(=O)cc(-c3cc4cccc(OC)c4o3)c2c1 | inactive
8 | C#CCOCCOCCOCCNc1nc(N2CCN(C(=O)CCCCCCCCCCNC(=O)[C@H]([C@@H](C)CC)n3cc(CCCCN=C(N)N)nn3)CC2)nc(N2CCN(C(=O)CCCCCCCCCCNC(=O)[C@@H]([C@H](C)O)n3cc(C)nn3)CC2)n1 | inconclusive: 37.7 µM [inhibitor, single point]
9 | COc1ccc2c(CC(=O)NCc3cccs3)coc2c1 | inconclusive: 39.8 µM [inhibitor, single point]
10 | O=C(Nc1ccccc1C(=O)O)c1ccccc1 | inconclusive: 35.5 µM [inhibitor, single point]
11 | O=C(COc1ccc(Cl)cc1)Nc1nc(-c2cccs2)cs1 | inconclusive: 0.631 µM [inhibitor, full curve, poor fit]
12 | O=C(NCc1ccco1)C1CC(=O)N(CCc2ccccc2)C1 (centres undefined) | inconclusive: 35.5 µM [inhibitor, single point]
13 | Cc1cccc[n+]1C1C(c2ccccc2)C(C#N)=C(C(=C=[N-])C#N)NC1(O)C1CC1 (centres undefined) | inactive
14 | Oc1ccc(Cn2ccnc2)c2cccnc12 | inactive
15 | COc1cc2nc3occc3c(OC)c2cc1OC | inconclusive: 2.82 µM [inhibitor, single point]
16 | COc1ccc(C(O)c2nccn2Cc2ccccc2)cc1 (centres undefined) | inconclusive: 0.631 µM [inhibitor, full curve, poor fit]
17 | CC(O)[C@@H]1NC(=O)[C@H](CCCN)NC(=O)[C@@H](Cc2c[nH]c3ccccc23)NC(=O)[C@H](Cc2ccc(O)cc2)NC(=O)[C@@H](NC(=O)[C@H](N)Cc2ccccc2)CSSC(C)(C)C(C(=O)N[C@H](C(N)=O)[C@@H](C)O)NC1=O (some centres undefined) | inactive
18 | Cc1ccc(NS(=O)(=O)c2ccc(Cl)c(N=Nc3c(O)[nH]c(=O)[nH]c3=O)c2)cc1Cl | inactive
19 | O=[N+]([O-])c1ccc(Cl)c(S(=O)(=O)Nc2ccc(-c3ccc(N4CCCC4)nn3)cc2)c1 | inactive
20 | COc1ccc(CCNc2nc(C)nc3c2oc2ccccc23)cc1OC | inconclusive: 28.2 µM [inhibitor, single point]
21 | O=C(CN1CCOCC1)N/N=C/c1ccc(-c2ccc(C(=O)O)cc2)o1 | inconclusive: 25.1 µM [inhibitor, single point]
22 | CC(Cc1cccs1)NC(=O)Nc1cccc(Cl)c1 (centres undefined) | inconclusive: 6.31 µM [inhibitor, full curve, poor fit]

In the list so far, these have a COOH group:
Row | SMILES | Potency
10 | O=C(Nc1ccccc1C(=O)O)c1ccccc1 | inconclusive: 35.5 µM [inhibitor, single point]
21 | O=C(CN1CCOCC1)N/N=C/c1ccc(-c2ccc(C(=O)O)cc2)o1 | inconclusive: 25.1 µM [inhibitor, single point]

More compounds:

Row | SMILES | Potency
23 | O=C(NCC1CC1)Nc1cccc(C(F)(F)F)c1 | inconclusive: 23.8 µM [inhibitor, single point]
24 | C/C(=N\NC(=O)Cc1cccn1C)c1ccco1 | inconclusive: 44.7 µM [inhibitor, single point]
25 | CCCCN(C(=O)c1cccc(-n2cccc2)c1)c1c(N)n(CCC)c(=O)[nH]c1=O | inactive
26 | O=C(c1ccc2c(c1)C(=O)N(CCCO)C2=O)c1ccc2c(c1)C(=O)N(CCCO)C2=O | inactive
27 | Cc1ccc(C(=O)NCc2ccco2)cc1S(=O)(=O)Nc1cccc(C)c1C | inconclusive: 44.7 µM [inhibitor, single point]
28 | CC(C)(C)NC(=O)CSc1nc2ccc(Nc3nc(N4CCOCC4)nc(N4CCOCC4)n3)cc2s1 | inconclusive: 39.8 µM [inhibitor, single point]
29 | O=C(OCC(=O)N1CCN(c2ccccc2)CC1)c1ccc([N+](=O)[O-])s1 | inconclusive: 33.6 µM [inhibitor, single point]
30 | Cc1cccc(OC(=O)Cn2c(C(F)(F)F)nc3ccccc32)c1 | active: 35.5 µM
31 | COC(=O)c1ccc2c(=O)n(CC3CCCO3)c(=S)[nH]c2c1 (centres undefined) | inconclusive: 39.8 µM [inhibitor, single point]
32 | Cc1cc(C)c2nc(N3CCC(C(=O)NCc4cccnc4)CC3)sc2c1 | inconclusive: 2.82 µM [inhibitor, partial curve]
33 | O=C1CCCC(O)=C1N=Nc1c(Cl)cc(C(F)(F)F)cc1Cl | inconclusive: 7.08 µM [inhibitor, partial curve]
34 | N#C/C(=C/c1ccc(N2CCCCC2)o1)C(=O)Nc1ccc2ccccc2c1 | inconclusive: 0.0562 µM [inhibitor, partial curve, poor fit]
35 | CSc1nn(-c2ccc(C(=O)OC(C(=O)NC(N)=O)C(C)C)cc2)c(=S)s1 (centres undefined) | inconclusive: 3.55 µM [inhibitor, single point]
36 | Cc1cc(/C=C2/C(=N)N3C(=NC2=O)SN=C3S(C)(=O)=O)c(C)n1-c1ccccc1F | inactive
37 | O=C(O)/C=C/c1cn(Cc2ccccc2)nc1-c1cccs1 | inconclusive: 0.447 µM [inhibitor, full curve]
38 | O=Cc1coc2c(ccc3ccccc32)c1=O | inactive
39 | Cc1c(Br)c(O)c(Br)c(O)c1/C=N/n1c(-c2ccccc2)n[nH]c1=S | inactive
40 | Cc1cccc(OCc2ccc(C(=O)N3CCOCC3)o2)c1 | inconclusive: 1.5 µM [inhibitor, single point]
41 | CCCCCCCCC(=O)N1CCN(c2cc3c(cc2F)c(=O)c(C(=O)O)cn3CC)CC1 | inconclusive: 33.6 µM [inhibitor, single point]
42 | Cc1ccc(C)c(NS(=O)(=O)c2cc(C(=O)Nc3ccccc3-c3ccccc3)ccc2C)c1 | inconclusive: 25.1 µM [inhibitor, single point]
43 | COc1ccc(N2CCN(C(c3ccc4ncccc4c3)c3nnnn3C(C)(C)C)CC2)cc1 (centres undefined) | inconclusive: 50.1 µM [inhibitor, partial curve]
44 | c1cncc(CNc2ncnc3ccc(-c4ccoc4)cc23)c1 | inactive

Row | SMILES | Potency
45 | O=S(=O)(c1ccc(-c2ccccc2)cc1)N1CCOCC1 | inconclusive: 2.24 µM [inhibitor, partial curve, poor fit]
46 | CC(C)NC(=O)/C(C#N)=C/c1ccc2c(c1)OCCO2 | inactive
47 | CCOC(=O)C1=C(CSc2nc(-c3ccccc3)ccc2C#N)OC(N)=C(C#N)C1c1ccc(OC)cc1 (centres undefined) | inactive
48 | CN(C)CCNC(=S)Nc1cccc(Cl)c1 | inconclusive: 0.0794 µM [inhibitor, full curve, poor fit]
49 | OC(CCCN1CCCCC1)(c1ccccc1)c1ccccc1 | inconclusive: 44.7 µM [inhibitor, single point]
50 | Cc1ccccc1NC(=O)CN(C)S(=O)(=O)c1ccc2c(c1)n(C)c(=O)c(=O)n2C | inconclusive: 8.44 µM [inhibitor, single point]
51 | COC(=O)c1[nH]c(C)c(/C(O)=C2\C(=O)C(=O)N(CCN3CCOCC3)C2c2cccnc2)c1C (centres undefined) | inconclusive: 0.005 µM [inhibitor, full curve, poor fit]
52 | COc1ccc(OC)c(Nc2nc(=O)c3cccnc3s2)c1 | inactive
53 | CCN(CC)C(=O)C1CCCN(C/C=C/c2ccccc2)C1 (centres undefined) | inconclusive: 8.91 µM [inhibitor, single point]
54 | CCc1ccc2[nH]c(=O)c(CN(Cc3ccccc3OC)Cc3nnnn3Cc3ccco3)cc2c1 | inconclusive: 39.8 µM [inhibitor, single point]
55 | COc1ccccc1C(=O)N/C(=C/c1ccc(Br)cc1)C(=O)NCCO | inactive
56 | CN(C)c1nc(NCc2ccccc2)nc(Oc2ccc(=O)[nH]n2)n1 | inconclusive: 100 µM [inhibitor, partial curve, poor fit]
57 | O=C(O)c1ccc(-c2ccc(/C=C3\NC(=O)N(Cc4ccc(Cl)cc4)C3=O)o2)cc1Cl | inconclusive: 39.8 µM [inhibitor, single point]
58 | CN(C)C(=O)CSc1nnc(NC(=O)CCc2ccccc2)s1 | inconclusive: 7.94 µM [inhibitor, single point]
59 | Cc1nc(N2CCC(C)CC2)c2c(C)c(C(=O)Nc3cccc(C(F)(F)F)c3)sc2n1 | inactive
60 | O=C(CSc1nc(-c2ccco2)cc(C(F)(F)F)n1)Nc1ccc(C(=O)N2CCCCC2)cc1 | inconclusive: 35.5 µM [inhibitor, single point]
61 | C=CCn1c(SCC(=O)NCC2CCCO2)nc2sc(CC)cc2c1=O (centres undefined) | inconclusive: 0.844 µM [inhibitor, single point]
62 | CC1CCC2C(=O)N3C(CCC(C)[C@@H]3c3ccc(-c4ccco4)cc3)C(=O)N2C1c1cccc(N2CCCC2=O)c1 (some centres undefined) | inconclusive: 8.91 µM [inhibitor, single point]
63 | CCOc1cc(S(=O)(=O)NC2CC(C)(C)NC(C)(C)C2)ccc1F | inconclusive: 0.316 µM [inhibitor, full curve, poor fit]
64 | O=C(Nc1nc2ccccc2s1)c1cccc(S(=O)(=O)N2CCc3ccccc32)c1 | inconclusive: 15.8 µM [inhibitor, partial curve, poor fit]
